Laboratory results: PubChem BioAssay AID328 (DTP/NCI, 2004)
The list does not hold the whole screen: it is rich in T/C values a quarter to a half above the control, in often repeated tests (any T/C) and in doses without a T/C. Other doses and runs of a compound stand elsewhere. T/C: endpoint of the treated group in % of that of the vehicle group. Some entries give survivors of the animals treated and no T/C: the source holds a T/C of zero for them, seemingly a mark for toxic or unscored doses. Some doses without a T/C left all or most animals alive at the check, yet need not have been tolerated: the source hardly ever lists a survival T/C far under the control, and the zero likely stands for such cases as well. Survivors were counted at the toxicity check, usually on the fifth day, unless a day is given; later deaths do not show. Schedules are NCI's codes, read here as Q, the interval in days (D) or hours (H), X, the number of doses. Marks such as (2×) stand for listed records that agree. Some entries hold several experiments; their values stand side by side, smallest first. For survival time, this PubChem deposit counts one and a half times the control or more as active, and values a quarter to a half above the control carry no call in these data; other NCI protocols may use other cut-offs. Some T/C values are followed by the survivors on the day toxicity was checked, most often the fifth; where none is given, no animal had died by that day.

Test system: BDF1 mice, P388 leukemia ip, median survival T/C
Experiment: NCI In Vivo Anticancer Drug Screen. Data for tumor model P388 Leukemia (intraperitoneal) in B6D2F1 (BDF1) mice
Details: T/C endpoint: median survival time, higher T/C = longer survival
In short: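 Compound-treated tumour-bearing mice were compared with vehicle-treated controls. Survival was recorded, and the value is the treated-group measurement divided by the control-group measurement (T/C).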

[1] = dose: 32.0 mg/kg/injection, schedule: Q01DX001 (oral), vehicle: saline

SMILES: COC(=O)[C@@H](O)[C@](O)(CCC(C)C)C(=O)O[C@@H]1C(OC)=C[C@]23CCCN2CCc2cc4c(cc2[C@H]13)OCO4
- T/C (dose: 0.75 mg/kg/injection, schedule: Q01DX010 (ip), vehicle: saline): 140 % of control
- T/C (dose: 0.94 mg/kg/injection, schedule: Q01DX009 (ip), vehicle: saline): 125 % of control
- T/C (dose: 1.0 mg/kg/injection, schedule: Q03HX008 (ip), vehicle: saline): 144 % of control
- T/C (dose: 1.5 mg/kg/injection, schedule: Q01DX010 (ip), vehicle: saline): 136 % of control
- T/C (dose: 1.88 mg/kg/injection, schedule: Q01DX009 (ip), vehicle: saline): 129 % of control
- T/C (dose: 2.0 mg/kg/injection, schedule: Q01DX006 (iv), vehicle: saline): 133 % of control
- T/C (dose: 2.0 mg/kg/injection, schedule: Q01DX009 (ip), vehicle: saline, evaluated on day 30): 127 % of control
- T/C (dose: 2.0 mg/kg/injection, schedule: Q01DX009 (ip), vehicle: saline, evaluated on day 60): 144 % of control
- T/C (dose: 2.0 mg/kg/injection, schedule: Q01DX009 (sc), vehicle: saline): 144 % of control
- T/C (dose: 2.0 mg/kg/injection, schedule: Q03HX016 (ip), vehicle: saline): 125 % of control
- T/C (dose: 3.0 mg/kg/injection, schedule: Q01DX009 (ip), vehicle: saline): 136 % of control
- T/C (dose: 3.0 mg/kg/injection, schedule: Q01DX010 (ip), vehicle: saline): 139 % of control
- T/C (dose: 3.75 mg/kg/injection, schedule: Q01DX009 (ip), vehicle: saline): 133 % of control
- T/C (dose: 4.0 mg/kg/injection, schedule: Q01DX009 (ip), vehicle: saline, evaluated on day 30): 154 and 200 % of control
- T/C (dose: 4.0 mg/kg/injection, schedule: Q01DX009 (ip), vehicle: saline, evaluated on day 60): 130 [9 of 10 alive] and 188 % of control
- T/C (dose: 4.0 mg/kg/injection, schedule: Q01DX009 (oral), vehicle: saline): 135 % of control
- survivor count (dose: 4.0 mg/kg/injection, schedule: Q03HX016 (ip), vehicle: saline): 6 of 10
- survivor count (dose: 4.0 mg/kg/injection, schedule: Q03HX024 (ip), vehicle: saline): 7 of 10
- T/C (dose: 4.0 mg/kg/injection, schedule: Q04DX003 (ip), vehicle: saline): 138 % of control
- T/C (dose: 8.0 mg/kg/injection, schedule: Q01DX001 (ip), vehicle: saline): 133 % of control
- T/C (dose: 8.0 mg/kg/injection, schedule: Q01DX001 (iv), vehicle: saline): 138 % of control
- T/C (dose: 8.0 mg/kg/injection, schedule: Q01DX001 (sc), vehicle: saline): 138 % of control
- T/C (dose: 8.0 mg/kg/injection, schedule: Q01DX009 (oral), vehicle: saline, evaluated on day 30): 145 % of control
- T/C (dose: 8.0 mg/kg/injection, schedule: Q01DX009 (oral), vehicle: saline, evaluated on day 60): 140 % of control
- survivor count (dose: 8.0 mg/kg/injection, schedule: Q03HX008 (ip), vehicle: saline): 0 of 10
- survivor count (dose: 8.0 mg/kg/injection, schedule: Q03HX016 (ip), vehicle: saline): 0 of 10
- survivor count (dose: 8.0 mg/kg/injection, schedule: Q03HX024 (ip), vehicle: saline): 0 of 10
- survivor count (dose: 12.0 mg/kg/injection, schedule: Q01DX009 (ip), vehicle: saline): 10 of 10
- survivor count (dose: 15.0 mg/kg/injection, schedule: Q01DX009 (ip), vehicle: saline): 5 of 6
- survivor count (dose: 15.0 mg/kg/injection, schedule: Q01DX009 (ip), vehicle: water): 3 of 6
- T/C (dose: 16.0 mg/kg/injection, schedule: Q01DX001 (ip), vehicle: saline): 133 % of control
- T/C (dose: 16.0 mg/kg/injection, schedule: Q01DX001 (iv), vehicle: saline): 133 % of control
- T/C (dose: 16.0 mg/kg/injection, schedule: Q01DX001 (oral), vehicle: saline): 133 % of control
- T/C (dose: 16.0 mg/kg/injection, schedule: Q01DX001 (sc), vehicle: saline): 133 % of control
- survivor count (dose: 16.0 mg/kg/injection, schedule: Q01DX006 (iv), vehicle: saline): 10 of 10
- survivor count (dose: 16.0 mg/kg/injection, schedule: Q01DX009 (ip), vehicle: saline): 9 of 10
- T/C (dose: 16.0 mg/kg/injection, schedule: Q01DX009 (oral), vehicle: saline): 125 % of control [8 of 10 alive]
- survivor count (dose: 16.0 mg/kg/injection, schedule: Q01DX009 (sc), vehicle: saline): 7 of 10
- survivor count (dose: 16.0 mg/kg/injection, schedule: Q03HX008 (ip), vehicle: saline): 0 of 10
- survivor count (dose: 16.0 mg/kg/injection, schedule: Q03HX016 (ip), vehicle: saline): 0 of 10
- survivor count (dose: 16.0 mg/kg/injection, schedule: Q03HX024 (ip), vehicle: saline): 0 of 10
- survivor count (dose: 24.0 mg/kg/injection, schedule: Q01DX009 (ip), vehicle: saline): 2 of 10
- survivor count (dose: 32.0 mg/kg/injection, schedule: Q01DX001 (ip), vehicle: saline): 6 of 10
- survivor count (dose: 32.0 mg/kg/injection, schedule: Q01DX001 (iv), vehicle: saline): 1 of 10
- T/C [1]: 144 % of control [9 of 10 alive]
- survivor count [1]: 5 of 10
- survivor count (dose: 32.0 mg/kg/injection, schedule: Q01DX001 (sc), vehicle: saline): 2 of 10
- survivor count (dose: 32.0 mg/kg/injection, schedule: Q01DX006 (iv), vehicle: saline): 0 of 10
- survivor count (dose: 32.0 mg/kg/injection, schedule: Q01DX009 (ip), vehicle: saline): 0 of 10 (2×)
- survivor count (dose: 32.0 mg/kg/injection, schedule: Q01DX009 (oral), vehicle: saline): 0 of 10 (2×)
- survivor count (dose: 32.0 mg/kg/injection, schedule: Q01DX009 (sc), vehicle: saline): 0 of 10 and 1 of 10
- survivor count (dose: 32.0 mg/kg/injection, schedule: Q04DX003 (ip), vehicle: saline): 10 of 10
- survivor count (dose: 48.0 mg/kg/injection, schedule: Q01DX009 (ip), vehicle: saline): 0 of 10
- survivor count (dose: 64.0 mg/kg/injection, schedule: Q01DX001 (ip), vehicle: saline): 0 of 10
- survivor count (dose: 64.0 mg/kg/injection, schedule: Q01DX001 (iv), vehicle: saline): 0 of 10
- survivor count (dose: 64.0 mg/kg/injection, schedule: Q01DX001 (oral), vehicle: saline): 1 of 10
- survivor count (dose: 64.0 mg/kg/injection, schedule: Q01DX001 (sc), vehicle: saline): 0 of 10
- survivor count (dose: 64.0 mg/kg/injection, schedule: Q01DX009 (oral), vehicle: saline): 0 of 10
- survivor count (dose: 64.0 mg/kg/injection, schedule: Q04DX003 (ip), vehicle: saline): 2 of 10
- survivor count (dose: 64.0 mg/kg/injection, schedule: Q08DX002 (ip), vehicle: saline): 0 of 10
- survivor count (dose: 128.0 mg/kg/injection, schedule: Q01DX001 (ip), vehicle: saline): 0 of 10
- survivor count (dose: 128.0 mg/kg/injection, schedule: Q01DX001 (iv), vehicle: saline): 0 of 10
- survivor count (dose: 128.0 mg/kg/injection, schedule: Q01DX001 (oral), vehicle: saline): 0 of 10
- survivor count (dose: 128.0 mg/kg/injection, schedule: Q01DX001 (sc), vehicle: saline): 0 of 10
- survivor count (dose: 128.0 mg/kg/injection, schedule: Q08DX002 (ip), vehicle: saline): 0 of 10
- survivor count (dose: 256.0 mg/kg/injection, schedule: Q01DX001 (oral), vehicle: saline): 0 of 10
- T/C (dose: 1000.0 micrograms/kg/injection, schedule: Q03HX024 (ip), vehicle: saline): 130 % of control
- T/C (dose: 2000.0 micrograms/kg/injection, schedule: Q03HX024 (ip), vehicle: saline): 140 % of control
